Results taken from paper PMC10110421.
These are yes or no findings as the source states them, for the method shown. In cells and extracts the contact can be indirect. A yes stands for co-enrichment or nearness to the bait. Other partners may have been found.

Assays:
[1] = molecular target: HA-tagged or GFP-tagged WDR60 stably expressed in hTERT-RPE1 cells (human) (UniProt Q8WVS4); test: affinity purification with mass spectrometry; hTERT-RPE1 cells stably expressing HA- or GFP-tagged WDR60 or WDR34, treated with 1 mM DSP cross-linker on ice, lysed (Igepal buffers), precipitated with anti-HA agarose or GFP-Trap agarose at 4°C; nano-LC MS/MS
[2] = molecular target: HA-tagged or GFP-tagged WDR34 stably expressed in hTERT-RPE1 cells (UniProt Q96EX3); test: as above

Row | binding [1] | binding [2] | Molecule
1 | binds | – | IFT172 (endogenous, hTERT-RPE1) (from UniProt Q9UG01 1-1749)
2 | binds | binds | IFT54 (endogenous, hTERT-RPE1) (protein, UniProt Q8TDR0 1-691) MNAAVVRRTQEALGKVIRRPPLTEKLLSKPPFRYLHDIITEVIRMTGFMKGLYTDAEMKSDNVKDKDAKISFLQKAIDVVVMVSGEPLLAKPARIVAGHEPERTNELLQIIGKCCLNKLSSDDAVRRVLAGEKGEVKGRASLTSRSQELDNKNVREEESRVHKNTEDRGDAEIKERSTSRDRKQKEELKEDRKPREKDKDKEKAKENGGNRHREGERERAKARARPDNERQKDRGNRERDRDSERKKETERKSEGGKEKERLRDRDRERDRDKGKDRDRRRVKNGEHSWDLDREKNREHDKPEKKSASSGEMSKKLSDGTFKDSKAETETEISTRASKSLTTKTSKRRSKNSVEGRKEDNISAKSLDSIVSGINNEPNQETTTSEIGTKEANINSTSISDDNSASLRCENIQPNPTEKQKGDSTSDAEGDAGPAGQDKSEVPETPEIPNELSSNIRRIPRPGSARPAPPRVKRQDSMEALQMDRSGSGKTVSNVITESHNSDNEEDDQFVVEAAPQLSEMSEIEMVTAVELEEEEKHGGLVKKILETKKDYEKLQQSPKPGEKERSLFESAWKKEKDIVSKEIEKLRTSIQTLCKSALPLGKIMDYIQEDVDAMQNELQMWHSENRQHAEALQQEQRITDCAVEPLKAELAELEQLIKDQQDKICAVKANILKNEEKIQKMVYSINLTSRR
3 | binds | – | IFT88 (endogenous, hTERT-RPE1) (protein, UniProt Q13099 1-824) MMQNVHLAPETDEDDLYSGYNDYNPIYDIEELENDAAFQQAVRTSHGRRPPITAKISSTAVTRPIATGYGSKTSLASSIGRPMTGAIQDGVTRPMTAVRAAGFTKAALRGSAFDPLSQSRGPASPLEAKKKDSPEEKIKQLEKEVNELVEESCIANSCGDLKLALEKAKDAGRKERVLVRQREQVTTPENINLDLTYSVLFNLASQYSVNEMYAEALNTYQVIVKNKMFSNAGILKMNMGNIYLKQRNYSKAIKFYRMALDQVPSVNKQMRIKIMQNIGVTFIQAGQYSDAINSYEHIMSMAPNLKAGYNLTICYFAIGDREKMKKAFQKLITVPLEIDEDKYISPSDDPHTNLVTEAIKNDHLRQMERERKAMAEKYIMTSAKLIAPVIETSFAAGYDWCVEVVKASQYVELANDLEINKAVTYLRQKDYNQAVEILKVLEKKDSRVKSAAATNLSALYYMGKDFAQASSYADIAVNSDRYNPAALTNKGNTVFANGDYEKAAEFYKEALRNDSSCTEALYNIGLTYEKLNRLDEALDCFLKLHAILRNSAEVLYQIANIYELMENPSQAIEWLMQVVSVIPTDPQVLSKLGELYDREGDKSQAFQYYYESYRYFPCNIEVIEWLGAYYIDTQFWEKAIQYFERASLIQPTQVKWQLMVASCFRRSGNYQKALDTYKDTHRKFPENVECLRFLVRLCTDLGLKDAQEYARKLKRLEKMKEIREQRIKSGRDGSGGSRGKREGSASGDSGQNYSASSKGERLSARLRALPGTNEPYESSSNKEIDASYVDPLGPQIERPKTAAKKRIDEDDFADEELGDDLLPE
4 | binds | – | IFT70A (endogenous, hTERT-RPE1) (protein, UniProt Q86WT1 1-665) MAGLSGAQIPDGEFTALVYRLIRDARYAEAVQLLGRELQRSPRSRAGLSLLGYCYYRLQEFALAAECYEQLGQLHPELEQYRLYQAQALYKACLYPEATRVAFLLLDNPAYHSRVLRLQAAIKYSEGDLPGSRSLVEQLLSGEGGEESGGDNETDGQVNLGCLLYKEGQYEAACSKFSATLQASGYQPDLSYNLALAYYSSRQYASALKHIAEIIERGIRQHPELGVGMTTEGFDVRSVGNTLVLHQTALVEAFNLKAAIEYQLRNYEVAQETLTDMPPRAEEELDPVTLHNQALMNMDARPTEGFEKLQFLLQQNPFPPETFGNLLLLYCKYEYFDLAADVLAENAHLTYKFLTPYLYDFLDALITCQTAPEEAFIKLDGLAGMLTEQLRRLTKQVQEARHNRDDEAIKKAVNEYDETMEKYIPVLMAQAKIYWNLENYPMVEKVFRKSVEFCNDHDVWKLNVAHVLFMQENKYKEAIGFYEPIVKKHYDNILNVSAIVLANLCVSYIMTSQNEEAEELMRKIEKEEEQLSYDDPNRKMYHLCIVNLVIGTLYCAKGNYEFGISRVIKSLEPYNKKLGTDTWYYAKRCFLSLLENMSKHMIVIHDSVIQECVQFLGHCELYGTNIPAVIEQPLEEERMHVGKNTVTDESRQLKALIYEIIGWNK
